Assay results taken from publication PMC5534431.
No constants are given. Whether binding was seen depends on the method and setting. Binding seen in cells or lysates may run through a third protein. Some entries that bind do so weakly or less than the wild type. Tags and fused reporters may be left off the sequences shown.

Chains of the proteins cited; added tags and fusions are not shown.
UniProt O15379: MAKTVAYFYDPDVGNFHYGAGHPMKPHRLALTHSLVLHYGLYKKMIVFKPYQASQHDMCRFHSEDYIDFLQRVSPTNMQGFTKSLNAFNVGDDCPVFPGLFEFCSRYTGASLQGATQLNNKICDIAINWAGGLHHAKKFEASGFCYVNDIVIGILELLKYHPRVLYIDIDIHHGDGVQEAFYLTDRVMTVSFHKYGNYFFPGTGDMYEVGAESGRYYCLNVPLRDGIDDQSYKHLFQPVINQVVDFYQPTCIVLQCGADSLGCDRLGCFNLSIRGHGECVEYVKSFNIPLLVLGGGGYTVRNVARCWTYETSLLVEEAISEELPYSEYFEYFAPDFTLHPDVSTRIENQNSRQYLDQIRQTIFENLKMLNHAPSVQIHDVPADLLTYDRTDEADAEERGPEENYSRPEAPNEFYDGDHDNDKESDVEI

Target: Flag-HDAC3 (histone deacetylase 3) (UniProt O15379)
Experiment: co-IP; HEK293T cells transfected with Flag-HDACs and HA-RORα; lysis buffer 200 mM NaCl, 50 mM Tris-HCl pH 8.0, 0.5% NP40; anti-Flag antibody overnight, protein A/G agarose beads; washed with 150 mM NaCl, 50 mM Tris-HCl pH 8.0, 0.5% NP40; immunoblot

binding: binds
B1: HA-RORα (retinoic acid receptor-related orphan receptor-α) (protein, UniProt P35398 1-523)
chain: MESAPAAPDPAASEPGSSGADAAAGSRETPLNQESARKSEPPAPVRRQSYSSTSRGISVTKKTHTSQIEIIPCKICGDKSSGIHYGVITCEGCKGFFRRSQQSNATYSCPRQKNCLIDRTSRNRCQHCRLQKCLAVGMSRDAVKFGRMSKKQRDSLYAEVQKHRMQQQQRDHQQQPGEAEPLTPTYNISANGLTELHDDLSNYIDGHTPEGSKADSAVSSFYLDIQPSPDQSGLDINGIKPEPICDYTPASGFFPYCSFTNGETSPTVSMAELEHLAQNISKSHLETCQYLREELQQITWQTFLQEEIENYQNKQREVMWQLCAIKITEAIQYVVEFAKRIDGFMELCQNDQIVLLKAGSLEVVFIRMCRAFDSQNNTVYFDGKYASPDVFKSLGCEDFISFVFEFGKSLCSMHLTEDEIALFSAFVLMSADRSWLQEKVKIEKLQQKIQLALQHVLQKNHREDGILTKLICKVSTLRALCGRHTEKLMAFKAIYPDIVRLHFPPLYKELFTSEFEPAMQIDG
